Test system: strawberries
Test: Organoleptic analysis: volatile organic compounds of exposed strawberries (GC)
Details: strawberries exposed for 5 days versus control

**Q.** For CC1=C(C=O)C(C)(C)CCC1 [β-CC, beta-cyclocitral], which “changes in the VOCs released through the fruits” value is on record?
**A.** The value was “No changes were observed”.
